Measurements published in the supplement of paper PMC3334620.
The full ranking holds about 33,000 sequences; the median of “E-score (-0.5 to 0.5)” is about -0.0034, and the highest 2% start at about 0.25. The list shows a part of the results.

Biological target: T1, Yap3 (UniProt P38749)
T1 sequence: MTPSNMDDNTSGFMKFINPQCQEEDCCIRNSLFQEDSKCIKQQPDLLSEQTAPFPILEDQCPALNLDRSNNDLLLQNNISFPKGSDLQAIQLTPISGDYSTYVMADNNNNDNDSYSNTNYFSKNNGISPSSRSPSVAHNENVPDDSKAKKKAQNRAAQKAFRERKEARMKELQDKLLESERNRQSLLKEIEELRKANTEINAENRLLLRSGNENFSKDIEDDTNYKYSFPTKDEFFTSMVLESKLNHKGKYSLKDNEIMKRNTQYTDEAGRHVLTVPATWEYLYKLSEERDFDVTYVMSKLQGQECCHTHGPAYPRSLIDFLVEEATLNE
Test: PBM E-score (8-mer binding enrichment) (E-score (-0.5 to 0.5)); higher = stronger / more preferred TF binding
Conditions: protein concentration: 100 nM; construct: GST-full length
Summary of the method: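 Full-length yeast transcription factors or their DNA-binding domains, GST-tagged and expressed with PURExpress, were applied at about 100-200 nM to universal all-10-mer Agilent arrays. These arrays had been made double-stranded by primer extension on fresh or once-stripped slides. Detection used fluorescent anti-GST, normalisation used masliner, and E-scores for ungapped eight-base words pooled with reverse complements came from the Universal PBM Analysis Suite.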

Sequence | PBM E-score
AGGGGTTG | -0.134
ACCCGAAC | -0.0278
GGAACCGA | -0.144
CCCTCGTA | -0.0833
AGGGCGTG | -0.125
CGCCCGGC | -0.25
AGTATATG | 0.157
CATTGACA | -0.195
GCTGAACC | -0.209
AAGATTCC | 0.0621
ATGAAATC | 0.0892
GGAGTACC | -0.122
ACACCCGA | 0.115
ACCACTGA | -0.101
ATATAGTC | 0.182
CCAATGAA | -0.193
CCCCCTAC | -0.25
CGTGTATC | 0.0353
CATCACAG | 0.0196
CCCGGCGA | -0.0387
CCCCTAAC | 0.0203
GAGCAAAC | 0.0386
AGGACTAT | -0.072
GAAGCGGA | 0.057
ACGCGAGA | 0.128

Sequence | PBM E-score
GCAAACGA | 0.103
CTATCTTC | 0.193
CCAACGCG | 0.00473
AACGCCAT | -0.0723
CACGAAGG | -0.133
AACGACGT | 0.0632
CTGCATGA | -0.19
ATGACCAT | 0.081
CATGGAAG | -0.0349
ATTACATG | 0.248
ATGACGGG | -0.0973
ACTCTGTA | -0.088
AAGCAATC | 0.0764
AAAGTAGC | -0.0458
ATAGGTTC | 0.104
AAGTTTTA | 0.167
GTTCGAAA | 0.213
CGTTATCA | 0.0539
CTTATGAA | 0.0398
TACAGTAA | 0.183
AACCCCCT | -0.382
TCCCGGAA | -0.011
ATTTTAAC | 0.149
ATTCACCC | 0.0908
AAGACAGC | -0.0991

2 successive entries out of the list so far:
Sequence | PBM E-score
GCAAACGA | 0.103
CTATCTTC | 0.193

The list goes on.

Sequence | PBM E-score
AGAATCCT | -0.169
TAGTGTCA | 0.0537
AGCTTCAA | 0.0127
AATAGGAT | 0.246
CGCTCTCA | -0.121
TACGTTGA | 0.18
CGAGAGAA | 0.00535
CTCGTTTC | 0.0789
CGAGGCAC | -0.102
CCGTAATA | 0.201
GGAATTAC | 0.235
ACTCGTTG | -0.0484
AACATGAA | 0.0757
TGTTCGAA | 0.015
AGAACTCC | -0.135
GAGGTTGC | -0.266
GTGGGGTA | 0.0417
CCCTTCGA | -0.174
GAAATCGA | 0.163
AGGGGCCG | -0.338
ATGCATTG | 0.0448
CCGATAAA | 0.119
CACAGACA | 0.00063
GGGTGATA | 0.0239
CTCCTAAG | -0.248

Sequence | PBM E-score
ACTACACA | 0.258
ATGAAAAC | 0.164
TGACAGAA | 0.184
AACAGGTC | -0.0988
CGCGATAA | 0.168
CAGATGGA | 0.127
GATATACA | 0.187
ACTCCGTG | -0.111
AGAGTCCG | -0.253
ACCTTGTC | -0.159
AGAGTTCC | -0.154
ATTCCATG | 0.0601
CGAGGTCC | -0.246
AAACCTCT | -0.0453
GACCATCC | -0.225
AAACTGGG | 0.0379
CTATGCCC | -0.112
ATTACGCA | 0.233
ATTCTTCC | 0.121
GCACACCA | -0.111
CATCTCCG | 0.0946
AAGCCACA | -0.00155
CCCACTCC | -0.25
CCGCCATA | 0.144
AACGACCC | -0.106

Sequence | PBM E-score
GCACTATA | 0.0864
ATGTCTGC | -0.0713
GTCCATTA | 0.213
CCCGGAGC | -0.148
TCGCGTCA | 0.0449
AAGACCAT | -0.0181
CCGGGACC | -0.311
ATGTTTCA | 0.0542
GAAGGGAC | -0.14
AAGCTGAT | 0.124
CCCCGAAG | -0.0705
CCTATAGA | -0.0407
CGTATATA | 0.145
CTCACAAG | 0.0207
GAGATCAA | 0.081
GGCTACAC | -0.166
AGGACAAG | -0.0693
AATTTTCG | 0.0612
ACAAGTAC | -0.0388
CACAGCAC | -0.125
AAAGACGA | 0.167
GGATCGCC | -0.166
AGGGAGAG | -0.178
GACAGGTA | -0.0202
GGATCAAA | 0.111

Sequence | PBM E-score
CATTGAGG | -0.0322
AGGTAGGC | -0.125
AGCACTAA | 0.0886
CACGTCGA | -0.00872
CCTTGGTA | 0.0365
GCTTGTAA | 0.157
CTAAATCC | 0.0159
ATCCATGG | -0.0629
AGTTCTCC | -0.0217
AACGCTAA | -0.122
CTTTGGTC | 0.00396
CGGGATTC | 0.0799
CTAAAAAG | 0.119
CAGTGTCG | -0.0567
GCCAAGGC | -0.327
GGCATTGA | -0.0403
AAATTCGA | 0.0665
AGATCGAC | -0.0717
TCCACACA | 0.0737
AATATTTA | 0.295
ATGCACTG | -0.0349
CACGATAG | 0.0653
ACACGGTC | -0.101
AGTTACAG | 0.0982
AGCTGGGC | -0.24

Another view of part of the listing above:
Sequence,PBM E-score
AAGTTTTA,0.167
GTTCGAAA,0.213
CGTTATCA,0.0539
CTTATGAA,0.0398

Additional results.

Sequence | PBM E-score
GCAGTCAA | -0.153
GATCATTA | 0.136
CGAACGCC | -0.157
AGCGGAAT | 0.0899
CCAAATGA | 0.124
GTCGTAAA | 0.0345
CCAACACC | -0.221
AAAACTCC | -0.0969
AAAGTGTG | 0.0545
CACTACTC | 0.0537
ATTGGGAG | -0.073
TAGCAATA | 0.0928
ACCAAAGA | 0.15
CGTATAGC | 0.00744
AGAACAAT | 0.221
CAAAGATA | 0.0838
TACTACCA | -0.122
CTCGCCGA | 0.0481
AGTATAAT | 0.293
ACGTGTAC | -0.0447
AGGCGTTA | -0.0289
CAATCCAA | 0.0735

Part of the list above, reformatted:

| Sequence | PBM E-score |
| --- | --- |
| CCAAATGA | 0.124 |
| CCAACACC | -0.221 |
